# “Also recorded” adds a separate entry of the source. At least one compound was matched to its structure with a doubt left.
# By UniProt entry, the sequences of proteins in these tests, tags left out. Where a name states a change or a piece, a line headed by the entry shows the natural chain unless it says otherwise.
# UniProt Q13315: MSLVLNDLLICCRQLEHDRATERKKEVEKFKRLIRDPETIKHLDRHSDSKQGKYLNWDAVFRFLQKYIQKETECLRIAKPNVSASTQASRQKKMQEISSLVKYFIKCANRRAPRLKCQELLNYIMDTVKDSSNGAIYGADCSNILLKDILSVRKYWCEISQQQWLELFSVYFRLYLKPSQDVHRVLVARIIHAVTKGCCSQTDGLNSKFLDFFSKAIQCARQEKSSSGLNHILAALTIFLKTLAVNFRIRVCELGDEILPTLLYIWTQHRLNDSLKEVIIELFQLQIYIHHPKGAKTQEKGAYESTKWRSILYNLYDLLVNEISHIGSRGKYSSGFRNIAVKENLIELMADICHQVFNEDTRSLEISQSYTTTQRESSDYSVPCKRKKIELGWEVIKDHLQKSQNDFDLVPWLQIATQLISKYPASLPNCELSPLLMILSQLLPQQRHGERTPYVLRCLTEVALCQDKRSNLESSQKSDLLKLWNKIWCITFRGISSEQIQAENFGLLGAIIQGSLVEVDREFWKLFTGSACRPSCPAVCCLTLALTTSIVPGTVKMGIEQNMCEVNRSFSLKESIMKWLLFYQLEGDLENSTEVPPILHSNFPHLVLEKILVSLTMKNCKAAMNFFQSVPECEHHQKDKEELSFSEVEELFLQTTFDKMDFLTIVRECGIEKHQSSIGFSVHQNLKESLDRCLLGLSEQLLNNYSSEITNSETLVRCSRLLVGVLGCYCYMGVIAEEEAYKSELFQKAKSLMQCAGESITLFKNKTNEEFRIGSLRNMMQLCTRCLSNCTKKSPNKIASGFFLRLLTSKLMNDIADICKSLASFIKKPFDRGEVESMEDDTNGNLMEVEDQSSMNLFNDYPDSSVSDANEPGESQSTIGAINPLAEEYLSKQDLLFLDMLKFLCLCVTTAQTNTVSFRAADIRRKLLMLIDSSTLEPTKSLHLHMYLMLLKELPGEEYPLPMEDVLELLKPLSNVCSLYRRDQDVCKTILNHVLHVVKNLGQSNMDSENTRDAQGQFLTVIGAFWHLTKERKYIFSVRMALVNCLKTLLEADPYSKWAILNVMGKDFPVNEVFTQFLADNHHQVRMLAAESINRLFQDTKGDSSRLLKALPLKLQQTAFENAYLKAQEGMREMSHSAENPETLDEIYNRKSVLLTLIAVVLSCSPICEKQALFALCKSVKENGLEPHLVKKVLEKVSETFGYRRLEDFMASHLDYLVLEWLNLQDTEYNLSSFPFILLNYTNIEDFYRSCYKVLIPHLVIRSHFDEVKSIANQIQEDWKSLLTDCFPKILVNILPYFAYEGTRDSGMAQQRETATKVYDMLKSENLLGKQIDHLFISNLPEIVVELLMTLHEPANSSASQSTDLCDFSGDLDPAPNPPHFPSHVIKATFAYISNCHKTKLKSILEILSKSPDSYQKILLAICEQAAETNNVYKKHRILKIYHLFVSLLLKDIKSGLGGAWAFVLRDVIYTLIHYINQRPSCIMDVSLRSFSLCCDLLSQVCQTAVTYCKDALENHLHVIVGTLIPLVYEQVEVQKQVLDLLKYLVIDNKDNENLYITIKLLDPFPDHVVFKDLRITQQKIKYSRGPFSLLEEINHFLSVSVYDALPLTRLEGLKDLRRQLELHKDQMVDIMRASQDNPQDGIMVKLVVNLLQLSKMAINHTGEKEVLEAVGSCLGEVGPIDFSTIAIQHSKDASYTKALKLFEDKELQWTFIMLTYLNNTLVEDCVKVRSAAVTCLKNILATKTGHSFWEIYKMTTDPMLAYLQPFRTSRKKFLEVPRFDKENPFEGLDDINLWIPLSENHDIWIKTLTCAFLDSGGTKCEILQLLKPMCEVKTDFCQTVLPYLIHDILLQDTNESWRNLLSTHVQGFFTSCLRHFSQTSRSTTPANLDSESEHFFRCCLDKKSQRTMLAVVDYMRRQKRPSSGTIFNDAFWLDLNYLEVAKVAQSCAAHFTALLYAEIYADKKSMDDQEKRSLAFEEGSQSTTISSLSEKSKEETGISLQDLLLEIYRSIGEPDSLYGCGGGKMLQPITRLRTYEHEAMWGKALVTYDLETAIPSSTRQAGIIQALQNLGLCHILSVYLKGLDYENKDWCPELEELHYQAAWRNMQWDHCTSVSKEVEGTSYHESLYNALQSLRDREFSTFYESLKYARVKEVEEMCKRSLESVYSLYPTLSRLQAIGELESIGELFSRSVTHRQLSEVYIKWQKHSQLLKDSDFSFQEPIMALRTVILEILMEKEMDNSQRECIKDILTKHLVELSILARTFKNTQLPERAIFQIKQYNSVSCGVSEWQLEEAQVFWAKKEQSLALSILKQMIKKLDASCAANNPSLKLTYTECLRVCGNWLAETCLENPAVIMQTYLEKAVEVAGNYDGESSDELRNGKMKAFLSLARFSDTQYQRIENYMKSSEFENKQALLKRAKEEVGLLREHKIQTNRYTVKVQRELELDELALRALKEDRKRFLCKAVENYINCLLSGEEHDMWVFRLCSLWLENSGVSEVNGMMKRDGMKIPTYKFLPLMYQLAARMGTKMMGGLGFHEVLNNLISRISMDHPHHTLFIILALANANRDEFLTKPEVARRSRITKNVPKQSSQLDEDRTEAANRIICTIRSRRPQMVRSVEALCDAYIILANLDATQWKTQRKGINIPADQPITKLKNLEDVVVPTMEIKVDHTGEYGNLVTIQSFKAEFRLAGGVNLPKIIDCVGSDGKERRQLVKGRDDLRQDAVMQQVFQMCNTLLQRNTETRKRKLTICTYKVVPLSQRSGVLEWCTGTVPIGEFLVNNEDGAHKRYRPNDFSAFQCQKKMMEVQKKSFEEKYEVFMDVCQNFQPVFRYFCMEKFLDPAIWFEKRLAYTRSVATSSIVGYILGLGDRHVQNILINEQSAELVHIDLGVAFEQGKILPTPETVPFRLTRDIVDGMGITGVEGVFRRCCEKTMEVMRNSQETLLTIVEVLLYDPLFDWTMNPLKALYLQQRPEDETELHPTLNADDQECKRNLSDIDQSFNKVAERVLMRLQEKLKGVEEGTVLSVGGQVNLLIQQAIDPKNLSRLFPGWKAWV
# How the values were obtained:
# [1] = Labeling of cellular proteins in HEK 293T lysate (Western blot); type: binding, human; conditions: 0.1-10 μM tested
# ATM = target: T1, ATM (Homo sapiens, UniProt Q13315); experiment: Streptavidin-sepharose pull-down from nuclear extract, ATM; type: binding; conditions: HeLa nuclear extract; 150 μM wortmannin or 1 mM ATP
# T1 construct: we used nuclear extract for our pull-down experiments; endogenous in cells
# Protocol: (§1) For the competition with ATP, ATP was directly added to a final concentration of 1 mM ATP.
# (§2) To determine which PIK-related kinases could be pulled-down with BW, we performed several affinity precipitations after incubation with BW concentrations ranging from 0.5-50 μM. As controls, we used the […] compound (negative) and nuclear extracts (positive). We probed a Western blot for the precipitation of ATR, ATM and DNA-PKcs and received a pattern of different sensibility that is related to the IC50s observed in vitro. DNA-PKcs is the most sensitive member to precipitation with BW of the PIK-related kinases we tested and can be precipitated at concentrations as low as 0.5 μM. ATM also seems to be more sensitive to precipitation than ATR, and starts to give a signal at 2 μM. ATR is the least sensitive kinase to precipitation tested, and starts to pull-down at 10 μM.
# (§3) Therefore, we performed pull-down reactions with 30 μM biotin-wortmannin using HeLa nuclear extract. […] The proteins that were pull-down were analyzed via Western blot detecting DNA-PKcs, ATM and biotin-wortmannin.
# DNA-PKcs = target: T2, DNA-PKcs (Homo sapiens, UniProt P78527); experiment: Streptavidin-sepharose pull-down from nuclear extract, DNA-PKcs; type: binding; conditions: HeLa nuclear extract; 150 μM wortmannin or 1 mM ATP
# T2 construct: we used nuclear extract for our pull-down experiments; endogenous in cells
# Protocol: as §1, §2, §3
smiles,measurement,setting,value
"COC[C@H]1OC(=O)c2coc3c2[C@@]1(C)C1=C(C3=O)[C@@H]2CCC(=O)[C@@]2(C)C[C@H]1OC(C)=O [wortmannin, Wortmannin]",lowest concentration at which a predominant high molecular weight band was observed,[1],0.1 µM
same,effect of pretreatment on pull-down of ATM with 30 μM biotin-wortmannin,ATM,significantly reduced the pull-down efficiency; also recorded: prevented almost all
same,effect of pretreatment on pull-down of DNA-PKcs with 30 μM biotin-wortmannin,DNA-PKcs,significantly reduced the pull-down efficiency; also recorded: prevented almost all

# Reference: patent US20030194749A1 (priority 2002, published 2003)
